Measurements reported in the supplement of paper PMC10849652.
Some of the results follow.

Protein sequences, listed by entry. Tags and fused reporters are not part of them. Lines headed by an entry give the natural chain unless they say otherwise; changes in a name come on top.
UniProt Q9UGJ0: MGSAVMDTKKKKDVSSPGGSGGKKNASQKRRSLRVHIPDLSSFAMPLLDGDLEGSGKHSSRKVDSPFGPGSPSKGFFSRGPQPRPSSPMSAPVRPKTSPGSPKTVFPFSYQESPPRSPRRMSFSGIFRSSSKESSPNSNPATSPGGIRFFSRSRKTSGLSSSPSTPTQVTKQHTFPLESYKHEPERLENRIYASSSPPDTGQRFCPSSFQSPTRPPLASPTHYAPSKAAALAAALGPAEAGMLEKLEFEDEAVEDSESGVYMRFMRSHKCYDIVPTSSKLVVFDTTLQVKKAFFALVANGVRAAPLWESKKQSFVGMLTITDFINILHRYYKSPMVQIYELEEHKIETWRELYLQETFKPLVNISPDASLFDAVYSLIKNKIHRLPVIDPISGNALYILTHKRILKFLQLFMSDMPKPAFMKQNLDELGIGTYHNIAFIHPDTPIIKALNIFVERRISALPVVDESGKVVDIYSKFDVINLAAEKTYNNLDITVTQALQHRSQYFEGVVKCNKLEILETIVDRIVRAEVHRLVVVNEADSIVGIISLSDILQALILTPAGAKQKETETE
UniProt O75170: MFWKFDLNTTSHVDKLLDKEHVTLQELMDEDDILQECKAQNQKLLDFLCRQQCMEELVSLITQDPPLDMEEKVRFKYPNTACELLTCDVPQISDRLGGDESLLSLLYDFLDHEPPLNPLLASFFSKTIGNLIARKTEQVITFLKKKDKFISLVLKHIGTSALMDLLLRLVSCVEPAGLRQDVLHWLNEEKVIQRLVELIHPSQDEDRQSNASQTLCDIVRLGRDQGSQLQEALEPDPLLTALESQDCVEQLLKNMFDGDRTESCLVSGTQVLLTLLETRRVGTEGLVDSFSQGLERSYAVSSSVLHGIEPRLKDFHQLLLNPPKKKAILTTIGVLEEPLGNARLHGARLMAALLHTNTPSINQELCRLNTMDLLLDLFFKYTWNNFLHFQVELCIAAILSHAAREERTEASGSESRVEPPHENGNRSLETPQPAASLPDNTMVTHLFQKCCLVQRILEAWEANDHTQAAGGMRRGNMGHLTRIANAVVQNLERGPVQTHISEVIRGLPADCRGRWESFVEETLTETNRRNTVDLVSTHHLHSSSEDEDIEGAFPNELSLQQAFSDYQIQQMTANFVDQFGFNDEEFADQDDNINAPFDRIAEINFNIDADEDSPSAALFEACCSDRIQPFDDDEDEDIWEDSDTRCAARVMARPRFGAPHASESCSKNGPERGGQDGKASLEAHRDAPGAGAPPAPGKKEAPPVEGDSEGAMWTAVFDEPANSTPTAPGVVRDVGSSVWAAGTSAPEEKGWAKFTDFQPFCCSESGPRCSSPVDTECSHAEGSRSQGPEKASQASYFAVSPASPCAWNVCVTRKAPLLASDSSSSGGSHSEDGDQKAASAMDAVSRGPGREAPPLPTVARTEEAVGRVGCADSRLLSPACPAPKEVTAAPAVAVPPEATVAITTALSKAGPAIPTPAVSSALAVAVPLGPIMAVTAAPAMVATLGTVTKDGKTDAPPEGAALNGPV
UniProt O60828: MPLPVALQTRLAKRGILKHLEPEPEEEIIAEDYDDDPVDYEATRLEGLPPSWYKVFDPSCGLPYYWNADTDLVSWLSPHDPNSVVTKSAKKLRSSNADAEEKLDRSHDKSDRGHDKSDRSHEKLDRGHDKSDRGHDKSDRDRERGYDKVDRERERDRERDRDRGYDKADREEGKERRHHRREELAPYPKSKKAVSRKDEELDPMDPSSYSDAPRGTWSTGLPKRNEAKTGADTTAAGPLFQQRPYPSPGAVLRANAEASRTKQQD
UniProt O15091: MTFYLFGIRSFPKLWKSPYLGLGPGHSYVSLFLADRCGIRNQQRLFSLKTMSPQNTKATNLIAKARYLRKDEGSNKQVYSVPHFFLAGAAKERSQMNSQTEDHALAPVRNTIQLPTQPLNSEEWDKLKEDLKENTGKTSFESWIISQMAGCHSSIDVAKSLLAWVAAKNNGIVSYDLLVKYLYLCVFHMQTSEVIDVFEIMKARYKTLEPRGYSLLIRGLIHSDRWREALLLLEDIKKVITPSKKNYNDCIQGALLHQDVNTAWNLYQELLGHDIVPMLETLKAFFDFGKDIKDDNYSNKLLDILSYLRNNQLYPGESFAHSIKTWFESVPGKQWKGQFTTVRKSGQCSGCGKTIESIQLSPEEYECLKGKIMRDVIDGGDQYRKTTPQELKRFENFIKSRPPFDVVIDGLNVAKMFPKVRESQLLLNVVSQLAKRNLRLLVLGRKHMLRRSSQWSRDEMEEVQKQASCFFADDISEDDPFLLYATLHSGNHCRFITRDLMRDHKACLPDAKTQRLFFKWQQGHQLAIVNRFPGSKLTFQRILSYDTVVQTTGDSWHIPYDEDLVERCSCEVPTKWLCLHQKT
UniProt P30041: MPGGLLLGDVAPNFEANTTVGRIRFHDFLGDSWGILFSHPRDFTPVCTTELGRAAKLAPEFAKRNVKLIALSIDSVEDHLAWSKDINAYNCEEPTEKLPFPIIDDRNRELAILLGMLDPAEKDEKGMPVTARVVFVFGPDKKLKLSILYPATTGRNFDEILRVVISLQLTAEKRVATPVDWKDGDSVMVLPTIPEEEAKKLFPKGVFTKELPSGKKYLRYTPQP
UniProt K7ELL7: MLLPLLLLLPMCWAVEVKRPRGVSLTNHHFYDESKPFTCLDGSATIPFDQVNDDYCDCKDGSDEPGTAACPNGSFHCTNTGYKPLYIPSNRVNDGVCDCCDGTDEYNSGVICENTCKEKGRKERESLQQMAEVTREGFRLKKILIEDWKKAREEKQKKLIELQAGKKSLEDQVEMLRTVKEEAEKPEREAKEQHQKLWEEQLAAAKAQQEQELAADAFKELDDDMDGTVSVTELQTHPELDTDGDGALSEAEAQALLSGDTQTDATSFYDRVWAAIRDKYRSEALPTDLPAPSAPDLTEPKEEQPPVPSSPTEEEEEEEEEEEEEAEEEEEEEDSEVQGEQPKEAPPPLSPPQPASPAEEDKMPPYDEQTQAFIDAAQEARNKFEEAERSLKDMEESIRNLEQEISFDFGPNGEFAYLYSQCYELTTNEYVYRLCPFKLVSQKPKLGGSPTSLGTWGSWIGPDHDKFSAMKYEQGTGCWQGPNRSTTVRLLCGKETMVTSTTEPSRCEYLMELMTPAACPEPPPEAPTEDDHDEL
UniProt Q86UA1: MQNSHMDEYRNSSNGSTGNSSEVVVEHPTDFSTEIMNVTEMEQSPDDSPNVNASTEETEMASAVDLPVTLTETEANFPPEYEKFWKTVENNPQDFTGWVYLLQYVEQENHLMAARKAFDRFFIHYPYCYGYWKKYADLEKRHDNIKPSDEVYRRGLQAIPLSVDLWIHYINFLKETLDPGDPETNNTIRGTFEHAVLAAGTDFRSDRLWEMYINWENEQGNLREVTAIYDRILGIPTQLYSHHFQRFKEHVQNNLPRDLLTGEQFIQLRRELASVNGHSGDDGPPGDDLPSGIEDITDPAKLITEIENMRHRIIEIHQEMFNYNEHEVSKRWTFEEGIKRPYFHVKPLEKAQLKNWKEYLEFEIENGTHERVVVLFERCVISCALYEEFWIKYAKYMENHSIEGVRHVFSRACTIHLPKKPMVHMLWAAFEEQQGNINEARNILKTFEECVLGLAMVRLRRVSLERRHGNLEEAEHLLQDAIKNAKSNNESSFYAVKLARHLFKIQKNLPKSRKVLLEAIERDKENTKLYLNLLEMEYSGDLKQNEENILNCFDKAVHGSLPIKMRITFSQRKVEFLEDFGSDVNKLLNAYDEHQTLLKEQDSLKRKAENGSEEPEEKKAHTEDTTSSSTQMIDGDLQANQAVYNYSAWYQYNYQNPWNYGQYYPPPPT
UniProt O43314: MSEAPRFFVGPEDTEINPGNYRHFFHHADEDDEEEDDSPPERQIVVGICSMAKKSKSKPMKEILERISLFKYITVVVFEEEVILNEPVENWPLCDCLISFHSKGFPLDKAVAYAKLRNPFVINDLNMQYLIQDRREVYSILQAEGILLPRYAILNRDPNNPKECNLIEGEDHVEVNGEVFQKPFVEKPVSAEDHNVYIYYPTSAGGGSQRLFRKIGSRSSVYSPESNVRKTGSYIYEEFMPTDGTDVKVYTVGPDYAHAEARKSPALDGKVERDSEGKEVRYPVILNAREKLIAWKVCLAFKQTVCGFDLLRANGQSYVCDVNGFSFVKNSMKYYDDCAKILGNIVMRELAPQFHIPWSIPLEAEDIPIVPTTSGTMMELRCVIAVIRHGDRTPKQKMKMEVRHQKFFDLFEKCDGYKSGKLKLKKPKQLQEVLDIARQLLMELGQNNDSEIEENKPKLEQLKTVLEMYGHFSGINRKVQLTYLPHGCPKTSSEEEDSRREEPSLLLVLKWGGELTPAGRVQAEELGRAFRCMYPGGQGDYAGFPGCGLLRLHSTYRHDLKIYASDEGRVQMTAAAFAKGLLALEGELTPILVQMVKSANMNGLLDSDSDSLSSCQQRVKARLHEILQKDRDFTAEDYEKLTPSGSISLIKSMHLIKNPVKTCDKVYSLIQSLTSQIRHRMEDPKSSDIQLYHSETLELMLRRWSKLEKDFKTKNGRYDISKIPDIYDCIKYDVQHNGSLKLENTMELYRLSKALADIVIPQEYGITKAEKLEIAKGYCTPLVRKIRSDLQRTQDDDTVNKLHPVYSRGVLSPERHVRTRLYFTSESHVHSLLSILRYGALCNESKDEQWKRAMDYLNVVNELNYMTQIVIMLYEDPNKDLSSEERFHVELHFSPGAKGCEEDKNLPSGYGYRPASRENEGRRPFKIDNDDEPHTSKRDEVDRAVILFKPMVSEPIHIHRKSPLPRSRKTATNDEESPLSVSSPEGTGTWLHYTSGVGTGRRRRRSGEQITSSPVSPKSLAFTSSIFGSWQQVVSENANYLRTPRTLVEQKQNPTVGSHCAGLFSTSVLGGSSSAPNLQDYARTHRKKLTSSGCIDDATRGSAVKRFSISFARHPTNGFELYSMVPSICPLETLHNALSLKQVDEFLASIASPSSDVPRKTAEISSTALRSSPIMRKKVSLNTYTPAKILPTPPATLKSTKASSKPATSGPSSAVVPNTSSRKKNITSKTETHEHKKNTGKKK
UniProt Q5VTL8: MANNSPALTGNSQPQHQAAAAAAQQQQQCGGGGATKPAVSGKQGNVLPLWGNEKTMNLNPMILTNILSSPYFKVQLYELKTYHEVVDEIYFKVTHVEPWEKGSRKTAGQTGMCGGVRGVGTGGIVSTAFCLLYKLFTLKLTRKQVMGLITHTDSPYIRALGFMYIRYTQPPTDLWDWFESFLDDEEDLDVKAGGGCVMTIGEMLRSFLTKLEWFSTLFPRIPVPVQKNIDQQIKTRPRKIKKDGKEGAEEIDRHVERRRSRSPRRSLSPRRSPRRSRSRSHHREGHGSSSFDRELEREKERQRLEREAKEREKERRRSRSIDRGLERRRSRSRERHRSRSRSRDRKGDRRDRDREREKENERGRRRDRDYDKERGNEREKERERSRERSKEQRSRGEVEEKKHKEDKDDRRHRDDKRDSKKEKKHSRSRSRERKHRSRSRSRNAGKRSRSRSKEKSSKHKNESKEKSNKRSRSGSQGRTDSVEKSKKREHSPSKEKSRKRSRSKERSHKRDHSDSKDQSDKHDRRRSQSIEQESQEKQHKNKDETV
UniProt Q8WUF5: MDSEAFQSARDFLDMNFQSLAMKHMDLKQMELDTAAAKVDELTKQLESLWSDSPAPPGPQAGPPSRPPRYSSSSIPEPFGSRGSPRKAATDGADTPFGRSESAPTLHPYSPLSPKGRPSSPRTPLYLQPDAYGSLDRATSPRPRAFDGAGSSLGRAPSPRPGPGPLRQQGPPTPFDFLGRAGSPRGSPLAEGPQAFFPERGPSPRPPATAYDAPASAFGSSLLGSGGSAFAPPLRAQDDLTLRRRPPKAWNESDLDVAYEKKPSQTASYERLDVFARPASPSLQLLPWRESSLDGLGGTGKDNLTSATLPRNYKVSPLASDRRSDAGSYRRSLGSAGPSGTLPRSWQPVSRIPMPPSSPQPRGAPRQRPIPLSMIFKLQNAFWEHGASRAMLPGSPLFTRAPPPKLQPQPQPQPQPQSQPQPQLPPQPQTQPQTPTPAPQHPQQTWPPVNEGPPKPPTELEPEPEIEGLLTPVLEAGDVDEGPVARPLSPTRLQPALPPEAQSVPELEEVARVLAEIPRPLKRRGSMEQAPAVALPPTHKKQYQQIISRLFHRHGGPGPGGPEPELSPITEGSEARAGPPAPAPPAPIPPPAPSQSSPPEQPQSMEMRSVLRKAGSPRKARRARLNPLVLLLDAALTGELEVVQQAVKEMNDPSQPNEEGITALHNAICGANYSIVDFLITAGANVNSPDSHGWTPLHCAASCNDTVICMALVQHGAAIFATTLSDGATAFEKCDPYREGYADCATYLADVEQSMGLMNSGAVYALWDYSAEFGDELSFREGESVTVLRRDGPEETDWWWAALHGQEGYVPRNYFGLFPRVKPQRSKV

What was measured:
Assay in all cases: log2 fold change, soluble protein after heating vs DMSO (PISA); higher = thermal stabilisation; K562 lysate, 10 uM; active = over 0.2 and 3.5 SD of the protein, either way, in both replicates (recomputed)
[1] = compound: NCC(=O)Nc1ccc(-n2nc(C(F)(F)F)cc2-c2ccc3c(ccc4ccccc43)c2)cc1
In short: (§1)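 A 30 min treatment with 10 μM compound was applied to crude K562 extract at 1 mg/mL protein in PBS pH 7.4 with 1 mM MgCl2. Heating for 3 min spanned 48°C-58°C, after which aliquots were pooled, adjusted to 0.5% NP-40 at 4°C and spun at 21,000xg for 90 min. TMTpro 16plex LC-MS/MS of the supernatant, with channel sums equalised, gave values recorded as log-two fold change in thermal stability against solvent controls, from duplicates.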

vorinostat = compound: O=C(CCCCCCC(=O)Nc1ccccc1)NO [vorinostat]
In short: as §1

silmitasertib = compound: O=C(O)c1ccc2c(c1)nc(Nc1cccc(Cl)c1)c1ccncc12 [silmitasertib]
In short: as §1

[2] = compound: O=C1NC(=O)C(c2cnc3ccccn23)=C1c1cn2c3c(cc(F)cc13)CN(C(=O)N1CCCCC1)CC2
In short: as §1

entospletinib = compound: c1cn2cc(-c3ccc4cn[nH]c4c3)nc(Nc3ccc(N4CCOCC4)cc3)c2n1 [entospletinib]
In short: as §1

Target | log2 fold change [1] | log2 fold change (vorinostat) | log2 fold change (silmitasertib) | log2 fold change [2] | log2 fold change (entospletinib)
PRKAG2 (UniProt Q9UGJ0) | inactive: -0.11 | inactive: -0.035 | inactive: 0.216 | inactive: -0.06 | inactive: 0
PRKCD (UniProt Q05655) | inactive: 0.008 | inactive: -0.075 | inactive: -0.006 | inactive: -0.005 | inactive: 0.019
PPOX (UniProt P50336) | inactive: 0 | inactive: -0.142 | inactive: 0.11 | inactive: 0.016 | inactive: 0
PRPF6 (UniProt O94906) | inactive: 0.002 | active: -0.262 | inactive: 0.047 | inactive: 0.004 | inactive: 0.026
PPP6R2 isoform 5 (UniProt O75170) | inactive: 0.052 | inactive: 0 | inactive: 0.015 | inactive: 0.025 | inactive: -0.004
PPP2R5D (UniProt Q14738) | inactive: 0.002 | inactive: -0.071 | inactive: 0.05 | inactive: -0.018 | inactive: 0.032
PPP3CB (UniProt P16298) | inactive: -0.004 | inactive: 0.046 | inactive: 0.066 | inactive: -0.019 | inactive: -0.006
PPIL4 (UniProt Q8WUA2) | inactive: 0.023 | inactive: -0.075 | inactive: 0.027 | inactive: -0.042 | inactive: -0.077
PQBP1 (UniProt O60828) | inactive: 0.027 | inactive: 0.105 | inactive: -0.087 | inactive: 0.008 | inactive: 0.002
PRORP (UniProt O15091) | inactive: 0.068 | inactive: -0.078 | inactive: 0.007 | inactive: -0.013 | inactive: 0.042
PRPF38A (UniProt Q8NAV1) | inactive: -0.059 | inactive: -0.278 | inactive: 0.03 | inactive: 0.03 | inactive: 0.055
PRDX6 (UniProt P30041) | inactive: -0.016 | inactive: 0.077 | inactive: -0.022 | inactive: -0.002 | inactive: -0.014
PRKD3 (UniProt O94806) | inactive: -0.116 | inactive: -0.182 | inactive: 0.224 | inactive: 0.076 | inactive: 0.013
PPP1R2 (UniProt P41236) | inactive: 0.001 | inactive: 0.106 | inactive: -0.086 | inactive: 0.029 | inactive: 0.049
PPP1R8 (UniProt Q12972) | inactive: 0.02 | inactive: 0.04 | inactive: -0.009 | inactive: -0.017 | inactive: 0.025
PROCR (UniProt Q9UNN8) | inactive: -0.055 | inactive: 0.11 | inactive: 0.103 | inactive: -0.036 | inactive: -0.266
PRKCSH (UniProt K7ELL7) | inactive: 0.132 | inactive: 0.109 | inactive: 0.016 | inactive: 0.016 | inactive: -0.097
PRPF39 (UniProt Q86UA1) | inactive: 0.002 | inactive: -0.06 | inactive: 0.008 | inactive: -0.009 | inactive: 0.022
PPT1 (UniProt P50897) | inactive: -0.007 | inactive: 0.059 | inactive: -0.023 | inactive: -0.006 | inactive: -0.015
PPIP5K2 (UniProt O43314) | inactive: -0.01 | inactive: -0.158 | inactive: 0.023 | inactive: 0.017 | inactive: 0.002
PRPF38B (UniProt Q5VTL8) | inactive: 0.007 | inactive: -0.077 | inactive: -0.043 | inactive: 0.025 | inactive: 0.026
PPP1R18 (UniProt Q6NYC8) | inactive: 0.009 | inactive: -0.005 | inactive: 0.008 | inactive: -0.007 | inactive: -0.003
PPP1R13L (UniProt Q8WUF5) | inactive: -0.001 | inactive: 0.089 | inactive: -0.048 | inactive: -0.011 | inactive: 0.108
PPIP5K1 (UniProt Q6PFW1) | inactive: 0.029 | inactive: -0.119 | inactive: 0 | inactive: -0.023 | inactive: -0.041
PRKAG1 (UniProt P54619) | inactive: -0.001 | inactive: -0.062 | inactive: 0.065 | inactive: 0.006 | inactive: 0.011

Only log2 fold change (silmitasertib) (two entries from above):
Target	log2 fold change (silmitasertib)
PRPF39 (UniProt Q86UA1)	inactive: 0.008
PPT1 (UniProt P50897)	inactive: -0.023
